These are yes or no findings as the source states them, for the method shown. Some entries that bind do so weakly or less than the wild type.
Assays:
[1] = molecular target: T1, CD33 expressed on MV4-11 human AML cells (human, UniProt P20138 18-364); assay: flow cytometry on MV4-11 cells, MFI fold over background
T1 construct: whole, on cells; also called cell-expressed CD33

The chains behind the UniProt entries cited, without tags or fusion partners. Residues count along the entry.
UniProt P20138, residues 18-364: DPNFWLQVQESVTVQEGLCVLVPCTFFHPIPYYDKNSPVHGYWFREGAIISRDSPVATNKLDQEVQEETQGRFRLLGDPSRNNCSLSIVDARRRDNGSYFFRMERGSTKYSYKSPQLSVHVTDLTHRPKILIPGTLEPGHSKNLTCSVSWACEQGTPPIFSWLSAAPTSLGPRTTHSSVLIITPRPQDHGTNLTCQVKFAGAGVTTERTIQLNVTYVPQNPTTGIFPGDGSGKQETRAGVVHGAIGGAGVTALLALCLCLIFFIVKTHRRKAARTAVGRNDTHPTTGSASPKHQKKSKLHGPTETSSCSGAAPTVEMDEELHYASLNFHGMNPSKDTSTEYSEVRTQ

[2] = molecular target: T1, CD33 expressed on MV4-11 human AML cells; assay: flow cytometry, 20 ug/mL, MV4-11 cells, fold over background
[3] = molecular target: T1, CD33 expressed on MV4-11 human AML cells; assay: flow cytometry on MV4-11 cells

- binding [1]: binds
- binding [2]: binds
- binding [3]: binds
B1: CD33-TriNKET-F04 (ADI-29404 and a CD33-binding domain) (bispecific antibody, V domains shown)
VH 1: QVQLQQWGAGLLKPSETLSLTCAVYGGSFSGYYWSWIRQPPGKGLEWIGEIDHSGSTNYNPSLKSRVTISVDTSKNQFSLKLSSVTAADTAVYYCARARGPWSFDPWGQGTLVTVSS
VL 1: DIQMTQSPSTLSASVGDRVTITCRASQSISSWLAWYQQKPGKAPKLLIYKASSLESGVPSRFSGSGSGTEFTLTISSLQPDDFATYYCEQYDSYPTFGGGTKVEIK
VH 2: QVQLVQSGAEVKKPGASVKVSCKASGYTFTDYVVHWVRQAPGQGLEWMGYINPYNDGTKYNEKFKGRVTMTRDTSISTAYMELSRLRSDDTAVYYCARDYRYEVYGMDYWGQGTLVTVSS
VL 2: DIVLTQSPASLAVSPGQRATITCTASSSVNYIHWYQQKPGQPPKLLIYDTSKVASGVPARFSGSGSGTDFTLTINPVEANDTANYYCQQWRSYPLTFGQGTKLEIK

— patent US20240166753A1 (DRAGONFLY THERAPEUTICS, published 2024)
